Results are given in words; binding and its absence hold for the method and conditions named.

The chains behind the UniProt entries cited, without tags or fusion partners. Where a name states a change or a piece, a line headed by the entry shows the natural chain unless it says otherwise. A line that says so, or that is headed by a name, gives the form on record, which may keep a tag or linker.
UniProt P00441: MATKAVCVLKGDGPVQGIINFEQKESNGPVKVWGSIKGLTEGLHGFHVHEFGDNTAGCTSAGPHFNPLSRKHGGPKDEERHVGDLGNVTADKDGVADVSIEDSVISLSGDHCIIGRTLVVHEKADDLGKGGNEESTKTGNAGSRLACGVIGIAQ
recombinant hSOD1^G85R (P00441, form named): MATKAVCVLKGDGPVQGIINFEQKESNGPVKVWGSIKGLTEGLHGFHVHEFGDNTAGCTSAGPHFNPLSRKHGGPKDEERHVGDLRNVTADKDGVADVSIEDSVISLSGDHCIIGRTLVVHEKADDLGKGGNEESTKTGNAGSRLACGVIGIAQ

The assay addresses recombinant hSOD1^G85R (human) (UniProt P00441). Nature of the assay: co-IP; recombinant hSOD1^G85R (4 µg) incubated with or without recombinant MIF (2 µg); misfolded SOD1 immunoprecipitated overnight with A5C3 antibody crosslinked to Dynabeads protein G; IP buffer 50 mM Tris-HCl pH 7.4, 150 mM NaCl, 1 mM EDTA, 0.5% NP-40; immunoblot; both purified. Background: In western blotting, separated proteins are transferred to a membrane and probed.

B1: macrophage migration inhibitory factor, wild type (MIF^WT) (natural protein, human, UniProt P14174 1-115, looked up)
chain: MPMFIVNTNVPRASVPDGFLSELTQQLAQATGKPPQYIAVHVVPDQLMAFGGSSEPCALCSLHSIGKIGGAQNRSYSKLLCGLLAERLRISPDRVYINYYDMNAANVGWNNSTFA
notes: No tag is mentioned; Surmise: the initiator methionine is removed in E. coli, since tautomerase activity was measured; also called recombinant MIF; hMIF; source: E. coli BL21 (DE3), purified (Capto Q anion exchange, Capto S cation exchange)
As for B1, the binding entry is listed as “no binding”.

For the origin of these results see article PMC5833700, “MIF inhibits the formation and toxicity of misfolded SOD1 amyloid aggregates: implications for familial ALS” (Cell Death & Disease, 2018).
